Record: PubChem BioAssay AID686938 (Drosophila RNAi Screening Center, 2013)

- Assay: 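Fly genes required for calcium entry once internal stores are emptied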 (primary screen)
- Cell system: Drosophila S2R+ cells
- Reagent: long dsRNA against Drosophila genes, about 0.25 µg dsRNA per well, roughly 10,000 cells
- Timing: 5 days of knock-down before the calcium assay
- Treatment: thapsigargin (SERCA pump blocker) to empty calcium stores; entry signal taken 4 min after adding it
- Detection: 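Duplicate raw fluo-4 intensities per well from a plate reader, at rest and four minutes after thapsigargin emptied calcium stores; entry-to-rest ratio filled for only some wells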
- Scale: calcium entry signal: higher = stronger calcium signal after store depletion; entry to resting ratio: higher = more calcium entry relative to resting level; resting calcium signal: higher = higher resting calcium signal
- Hit rule: 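Hit if the duplicate-averaged plate z-score for entry over resting signal is under −3; wells with weak total dye signal (Fmax z < −2) or more than 5 off-targets removed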
- Meaning of the calls: active = strongly reduced calcium entry; inactive = no strong reduction
In all, the deposit lists about 23,000 reagents; below is a random part of those with a known target gene and a result. In the full data, 75 (0.33%) are marked active. 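Raw plate signals without normalisation; calls rest on plate z-scores that were not deposited; ratio present for only 364 wells.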 A number with no mark means an inactive call. The numbers tell different reagents against one gene apart. A plus sign joins genes that one reagent is predicted to hit. Not stated in the record: the dose of the treatment.

target gene | reagent no. | calcium entry signal, replicate 1 (fluorescence units) | calcium entry signal, replicate 2 (fluorescence units) | entry to resting ratio | resting calcium signal, replicate 1 (fluorescence units) | resting calcium signal, replicate 2 (fluorescence units)
CG1428 | 1 | 3.11e7 | 4.50e7 | – | 1.54e7 | 1.99e7
CG42673 | 1 | 4.75e7 | 4.44e7 | – | 2.60e7 | 2.00e7
CG42673 | 2 | 2.84e7 | 4.08e7 | – | 1.89e7 | 2.45e7
CG42673 | 3 | 2.61e7 | 3.22e7 | – | 1.33e7 | 1.34e7
CG42673 | 4 | 2.37e7 | 2.98e7 | – | 1.23e7 | 1.24e7
CG42673 | 5 | 3.44e7 | 4.44e7 | – | 1.62e7 | 1.79e7
CG42673 | 6 | 2.79e7 | 4.19e7 | – | 1.53e7 | 1.86e7
Cyp311a1 | 1 | 4.07e7 | 6.79e7 | – | 1.93e7 | 2.84e7
Myo95E | 1 | 2.65e7 | 2.88e7 | – | 1.21e7 | 1.38e7
Cyp40 | 1 | 5.19e7 | 4.22e7 | – | 3.32e7 | 1.77e7
Dab | 1 | 3.74e7 | 4.14e7 | – | 1.90e7 | 1.78e7
U3-55K | 1 | 2.61e7 | 2.71e7 | – | 1.54e7 | 1.57e7
CG3916 | 1 | 3.48e7 | 2.42e7 | – | 1.76e7 | 1.38e7
LUBEL | 1 | 3.35e7 | 3.32e7 | – | 1.58e7 | 1.65e7
Taf12L | 1 | 3.02e7 | 3.28e7 | – | 1.45e7 | 1.46e7
CG14770 | 1 | 3.56e7 | 3.61e7 | 2.1 | 1.68e7 | 1.54e7
Idgf1 | 1 | 3.72e7 | – | – | 2.04e7 | –
CG31473 | 1 | 4.10e7 | 3.23e7 | – | 1.89e7 | 1.46e7
Cyp6d5 | 1 | 3.25e7 | 3.23e7 | – | 1.41e7 | 1.49e7
CG12128 + CG1407 | 1 | 4.33e7 | 3.33e7 | – | 1.83e7 | 1.64e7
Herp | 1 | 4.40e7 | – | – | 2.12e7 | –
Dfd | 1 | 3.94e7 | 3.31e7 | – | 1.92e7 | 1.55e7
EbpII | 1 | 3.41e7 | – | – | 1.65e7 | –
EbpII | 2 | 3.42e7 | 3.83e7 | – | 2.06e7 | 1.70e7
CG42521 | 1 | 1.47e7 | 2.02e7 | – | 8.38e6 | 9.85e6
CG15255 | 1 | 3.26e7 | 2.24e7 | – | 1.68e7 | 1.26e7
FucTC | 1 | 3.38e7 | 4.60e7 | – | 1.55e7 | 2.00e7
PGRP-SB2 | 1 | 4.80e7 | 7.15e7 | – | 2.26e7 | 2.77e7
CG32407 | 1 | 1.93e7 | 3.23e7 | – | 9.66e6 | 1.41e7
CG9257 | 1 | 4.58e7 | 4.61e7 | – | 2.19e7 | 2.09e7
Polr3A | 1 | 2.62e7 | 2.11e7 | – | 1.45e7 | 1.02e7
CG14689 | 1 | 3.66e7 | 3.06e7 | – | 1.87e7 | 1.63e7
sel | 1 | 4.16e7 | 2.98e7 | – | 1.68e7 | 1.44e7
tay | 1 | 3.68e7 | 3.81e7 | – | 1.69e7 | 1.77e7
gt | 1 | 2.54e7 | 2.63e7 | 1.9 | 1.35e7 | 1.36e7
gt | 2 | 3.76e7 | 4.17e7 | – | 1.84e7 | 2.01e7
abo | 1 | 4.00e7 | 4.40e7 | – | 1.89e7 | 2.05e7
PGRP-LD + Cralbp + Pmi | 1 | 3.25e7 | 4.79e7 | – | 1.60e7 | 1.98e7
LPCAT | 1 | 4.58e7 | 6.49e7 | – | 2.07e7 | 2.86e7
LPCAT | 2 | 3.26e7 | 3.77e7 | – | 1.63e7 | 1.71e7
RalGPS | 1 | 4.43e7 | 4.14e7 | – | 1.95e7 | 2.03e7
CG9154 | 1 | 5.24e7 | – | – | 3.04e7 | –
del | 1 | 3.49e7 | – | – | 1.81e7 | –
asRNA:CR31514 + CG12947 | 1 | 4.19e7 | 3.58e7 | – | 2.08e7 | 1.75e7
Rs1 | 1 | 3.70e7 | 2.60e7 | – | 1.66e7 | 1.45e7
yl | 1 | 2.47e7 | 3.46e7 | – | 1.40e7 | 1.72e7
CG30105 | 1 | 4.35e7 | 4.27e7 | – | 1.81e7 | 2.12e7
mbc | 1 | 4.99e7 | 5.76e7 | – | 2.33e7 | 2.43e7
CG5225 | 1 | 3.50e7 | 6.56e7 | – | 1.57e7 | 6.59e7
CG10333 | 1 | 3.24e7 | – | – | 1.69e7 | –
TwdlF | 1 | 3.84e7 | 4.45e7 | – | 1.75e7 | 3.21e7
knrl | 1 | 3.24e7 | 4.37e7 | – | 1.63e7 | 3.15e7
knrl | 2 | 4.30e7 | 3.68e7 | – | 2.49e7 | 1.70e7
PGRP-SC1a | 1 | 3.93e7 | 5.09e7 | – | 1.87e7 | 2.14e7
Argk2 | 1 | 4.12e7 | 3.77e7 | – | 1.75e7 | 1.50e7
Argk2 | 2 | 3.00e7 | 3.02e7 | – | 1.55e7 | 1.51e7
ecd | 1 | 4.50e7 | 4.01e7 | – | 2.18e7 | 2.12e7
Obp50a | 1 | 3.16e7 | 6.64e7 | – | 1.49e7 | 3.11e7

Targets above whose gene name starts with M or m:
target gene | reagent no. | calcium entry signal, replicate 1 (fluorescence units) | calcium entry signal, replicate 2 (fluorescence units) | entry to resting ratio | resting calcium signal, replicate 1 (fluorescence units) | resting calcium signal, replicate 2 (fluorescence units)
Myo95E | 1 | 2.65e7 | 2.88e7 | – | 1.21e7 | 1.38e7
mbc | 1 | 4.99e7 | 5.76e7 | – | 2.33e7 | 2.43e7
